Test results reported in PubChem BioAssay AID1794844 (National Center for Advancing Translational Sciences (NCATS), 2023).
In all, about 2,800 compounds went through this assay and fewer than 10 were called active. Roughly 7% stayed inconclusive and do not appear here. The call rests on the fitted dose curve; in most records, active means well fitted inhibition curve with a large enough effect; inconclusive means small, poorly fitted or top-dose-only effect; inactive means no such curve, though single readings can be large or run the other way. The list shows a part of the results.

By UniProt entry, the sequences of proteins in these tests, tags left out. Where a name states a change or a piece, a line headed by the entry shows the natural chain unless it says otherwise.
UniProt C7C422: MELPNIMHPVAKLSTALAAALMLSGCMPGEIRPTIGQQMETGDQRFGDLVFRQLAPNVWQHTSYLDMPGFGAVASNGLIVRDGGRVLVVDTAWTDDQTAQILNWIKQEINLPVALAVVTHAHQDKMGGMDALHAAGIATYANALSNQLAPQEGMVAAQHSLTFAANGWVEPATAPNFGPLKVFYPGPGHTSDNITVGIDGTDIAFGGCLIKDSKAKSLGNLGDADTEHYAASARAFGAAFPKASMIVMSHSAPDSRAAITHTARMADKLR

What follows are compounds tested against Metallo-beta-lactamase type 2 (Klebsiella pneumoniae) (UniProt C7C422) (assay: qHTS to identify inhibitors of the New Delhi Metallo-beta-lactamase (NDM): Nitrocefin screen against the machine-based learning selections.). Conditions: NDM-1 enzyme, nitrocefin hydrolysis, absorbance 485 nm; activity, negative = inhibition: at the top concentration.
How it was run: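 NDM-1 (2 nM final) in 50 mM HEPES pH 7.0, 1 uM Zn2SO4, 0.01% Tween20 was preincubated with compounds for >30 min. Nitrocefin (16.7 uM final) was read at 485 nm after 15 min, and meropenem (50 uM final) at 300 nm after 30 min.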
Further: % of control where 0% means no effect.

SMILES	activity, negative = inhibition
CCC(=O)N1CCC(c2nc(C3CCOCC3)no2)C1 (centres undefined)	inactive: -0.448%
COc1cccc(C(=O)N2CCOC[C@H](Oc3cccnc3)C2)c1	inactive: -4.33% [at 57.5 µM]
c1ccc(-c2cc3c(cn2)CN(Cc2ccc4[nH]ccc4c2)CCN3)cc1	inactive: 6.79% [at 57.5 µM]
Cc1oc(C(O)c2cccc(O)c2)nc1C(=O)Nc1ccc2c(c1)CNC2=O (centres undefined)	inactive: 7.37% [at 57.5 µM]
COc1ccc(CN2CCNc3cc(Nc4ccccc4)ncc3C2)cc1	inactive: 3.46% [at 57.5 µM]
CC(C)=CC(=O)N1CC[C@H](NC(=O)Nc2ccc(F)cc2F)[C@H]1C(=O)N[C@@H](Cc1cccs1)C(N)=O	inactive: -2.77%
CC(C)(C)c1ccc(-c2cc(C[C@H]3CNCC[C@H]3CC(=O)NCc3ccc(F)cc3)no2)cc1	inactive: 2.12%
O=C(NC1CC(c2nnc(CO)n2C2CC2)C1)c1ccc(F)cc1Cl (centres undefined)	inactive: 0.365%
O=C1COc2cc(C(=O)NCC3CCOc4ccccc4C3)ccc2N1 (centres undefined)	inactive: 3.67%
Cn1cc(CN2CCOC[C@H](Oc3ccc(S(C)(=O)=O)cc3)C2)c2ccccc21	inactive: 8.21% [at 57.5 µM]
OCC1CNCCC12CCN(Cc1ccc3ccccc3c1)CC2 (centres undefined)	inactive: -5.86%
OC(c1ccccc1)c1nc(Nc2ccc(Cl)cc2F)n[nH]1 (centres undefined)	inactive: 4.51% [at 57.5 µM]
Cc1nc(N)nc(C)c1CC(=O)N1CC[C@@H](NC(=O)c2cccnc2)[C@H](O)C1	inactive: -0.0238%
CN(C)C(C(=O)N1CCN(Cc2nccn2C)CC1)c1cccc(F)c1 (centres undefined)	inactive: 0.958%
CCc1nncn1C1CCN(S(=O)(=O)c2ccc(F)cc2)CC1	inactive: 0.342%
COc1ccccc1C(=O)N[C@H]1[C@H](O)[C@H](O)C[C@@H]1c1ccc(N2CCOCC2)nc1	inactive: 6% [at 57.5 µM]
COc1ccc(CN2C[C@H]3CN(Cc4cnn(C)c4)CCN3C2=O)cc1	inactive: 7.09% [at 57.5 µM]
NC(=O)NCc1cn(C2CCN(Cc3cc4ccccc4s3)CC2)nn1	inactive: -20.2%
Cc1noc2c(-c3cccc(O)c3)cc(-c3ccccc3)nc12	inactive: -0.559% [at 57.5 µM]
O=C(c1cccnc1)N1CC[C@H](c2nnc(Cc3ccccc3)o2)C1	inactive: -2.68% [at 57.5 µM]
CN(C)CCN(C)CC[C@H]1CN(C(=O)c2ccc(F)cc2)CC[C@H]1CC(=O)O	inactive: -14.9% [at 57.5 µM]
COc1ccc(CN2CC3(C2)C(=O)N(Cc2cccc(Cl)c2)C(=O)[C@@H]2C[C@@H](O)CN23)c2ccccc12	inactive: -1.33%
CC(C)C[C@@H]1N[C@H](C(=O)NC(C)C)Cc2cn(Cc3ccncc3)c3cccc1c23	inactive: -5.22% [at 57.5 µM]
CCn1cc(CN2CCC(Oc3ccc4ccccc4c3)(C(=O)O)CC2)cn1	inactive: 16.2%
Oc1ccccc1CN1CCNc2cc(Nc3ccccc3)ncc2C1	inactive: 4.38% [at 57.5 µM]
CC(C)c1cc(CN(C)C(=O)CN2C(=O)COc3cccnc32)on1	inactive: -2.41%

Quoted at random: three records from the list
SMILES	activity, negative = inhibition
c1ccc(-c2cc3c(cn2)CN(Cc2ccc4[nH]ccc4c2)CCN3)cc1	inactive: 6.79% [at 57.5 µM]
CC(C)(C)c1ccc(-c2cc(C[C@H]3CNCC[C@H]3CC(=O)NCc3ccc(F)cc3)no2)cc1	inactive: 2.12%
CCC(=O)N1CCC(c2nc(C3CCOCC3)no2)C1 (centres undefined)	inactive: -0.448%

Following part

SMILES	activity, negative = inhibition
Fc1ccc(-c2nnc3ccc(NC4CCC4)nn23)nc1	inactive: -8.05% [at 76.7 µM]
COc1cc2c(cc1OC)CN(C(=O)C[C@@H]1CCNC[C@@H]1Cc1cc(CN3CCCCC3)on1)CC2	inactive: 6.01%
CC1(C(=O)NCc2ccccc2)COCc2cnc(Nc3ccccc3)nc21 (centres undefined)	inactive: 0.282% [at 57.5 µM]
CSCC(=O)Nc1ccc2n(c1=O)C[C@H]1C[C@@H]2CN(C(=O)c2ccc(-c3ccccc3)cc2)C1	inactive: 5.52%
O=C(c1ccccc1Cl)N1CCC2(CC1)Cc1ccccc1NC2=O	inactive: 1.65%
CCn1cc(C(=O)N2CCCC(CCc3cccc(F)c3)C2)cn1 (centres undefined)	inactive: -0.423%
Cc1ccc(N2CCN(C(=O)C3CCCN(c4cnn(Cc5ccccc5)c(=O)c4)C3)CC2)cc1 (centres undefined)	inactive: -5.13%
Cc1ccsc1-c1[nH]nc2ncc(-c3ccccc3O)nc12	inactive: -4.04% [at 57.5 µM]
COc1cccc(-c2cc(C(=O)O)cc(S(=O)(=O)NC(C)C)c2)c1	inactive: 0.733%
CC[C@H]1CN(Cc2ccc(OC)cc2O)CC[C@H]1CC(=O)N(C)CC#N	inactive: 1.85% [at 57.5 µM]
CCOCCN1C(=O)COC[C@@H]1[C@H](O)c1ccc(NC(=O)Nc2ccccc2)cc1	inactive: -10.5% [at 57.5 µM]
NC(=O)CN1C(=O)[C@@H]2CN(C(=O)CC3(CC(=O)O)CCCC3)CCN2C1=O	inactive: 0.97% [at 57.5 µM]
O=c1c2nc(NCc3cccs3)ccc2ncn1Cc1ccccc1	inactive: 0.467% [at 57.5 µM]
NC(=O)c1cccc(-c2cc(-c3cccnc3)c3cncn3c2)c1	inactive: 10% [at 57.5 µM]
Cc1ccc2c(c1)C(C[C@H]1CN(C(=O)NC(C)C)CC[C@H]1CC(=O)O)=NCC2	inactive: -8.19% [at 57.5 µM]
CC(C)NC(=O)CC[C@@H]1CNC(=O)[C@@H]2C[C@H](NCc3ccc(CO)o3)CN12	inactive: -20.1% [at 57.5 µM]
NC(=O)Cc1c[nH]c2ncc(-c3cccc(F)c3)cc12	inactive: 7.99% [at 76.7 µM]
C[C@H]1[C@@H]2[C@H]3OC(=O)[C@@H](C)[C@@H]3CC[C@@]2(C)CC[C@@H]1NC(=O)Cc1ccccc1	inactive: 0.93% [at 57.5 µM]
CN1C(=O)C(c2ccccc2)CC12CCN(C(=O)c1cccc(F)c1)CC2 (centres undefined)	inactive: 5.03%
O=C(CC[C@@H]1CNC(=O)[C@@H]2C[C@H](NCc3ccc(F)cc3)CN12)NCc1ccccc1	inactive: -3.97% [at 57.5 µM]
COC[C@@H]1CN(C(=O)Cc2ccc(OC)cc2)C[C@H]1c1nc(C)no1	inactive: -1.17%
O=C(NCC1(O)CCCCC1)c1ccc2nc(Cc3ccccc3F)oc2c1	inactive: -3.38%
OC1(CNCCc2nc(-c3cccnc3)n[nH]2)CNCCOC1 (centres undefined)	inactive: 10.7%
COc1ccc(-c2ccnc(N[C@H]3CO[C@H]4[C@@H]3OC[C@@H]4NC(=O)c3ccc(C)cc3)n2)cc1	inactive: -10.1%
COc1ccc(Cl)cc1-c1ccc2c(c1)C(=O)N1CC[C@H](N)C[C@H]1C(=O)N2	inactive: -2.65% [at 57.5 µM]
COCCCNC(=O)N1CCc2nn(CC3CC3)c(=O)n2CC1	inactive: -3.32%

SMILES	activity, negative = inhibition
O=C(O)c1ccc(CN2CCC[C@H]2c2nc(-c3ccc(F)cn3)no2)cc1	inactive: -13% [at 57.5 µM]
O=C(c1ccccc1-n1cncn1)N1CCC(N2CCCC2=O)CC1	inactive: -0.296%
O=C(N[C@@H](CO)c1ccccc1)c1cc(COc2cccc(F)c2)[nH]n1	inactive: -0.764%
Cc1nc2ccc(CNC(=O)c3cccc(CCC(C)(C)O)c3)cc2[nH]1	inactive: 2.21%
CN1[C@@H](CCC(=O)N2CCN(c3ccccc3)CC2)CNC(=O)[C@@H]2[C@H]1CCN2Cc1ccccc1	inactive: -13.7%
COc1cc(SC)ccc1C(=O)N[C@H]1CCN2C(=O)[C@@H](CC(C)C)NC(=O)[C@@H]2C1	inactive: 2.74% [at 57.5 µM]
NC(=O)CN1CCC(C(=O)NCc2cc(-c3ccc(Cl)cc3)on2)CC1	inactive: -4.79%
Cc1ccsc1-c1[nH]nc2ncc(-c3cn[nH]c3)nc12	inactive: 15.8% [at 76.7 µM]
COc1ccccc1-c1noc(CCC(=O)N2CCC(Cc3noc(C)n3)CC2)n1	inactive: -12%
COc1ccc(-c2cnc([C@@H]3COCCN3Cc3cn(C)c4ccccc34)[nH]2)cc1	inactive: -5.82% [at 57.5 µM]
Cc1ncnc(N2CCC(Oc3ccc4ccccc4c3)(C(=O)O)CC2)c1C	inactive: 0%
O=C(c1ccccc1)N1CCC(NCCN2CCCCC2CO)CC1 (centres undefined)	inactive: -0.201%
C#CCN(C)CC[C@@H]1CC[C@H](O)[C@@H](C(=O)N(C)Cc2ccccc2)O1	inactive: -0.239% [at 57.5 µM]
CC(C)N1CCC(O)(c2csc(CN3CCN(C)CC3)n2)CC1	inactive: 2.11% [at 57.5 µM]
Oc1ccccc1CN1CCNc2cnc(Oc3ccccc3)cc2C1	inactive: -3.99% [at 57.5 µM]
CCOc1ccccc1-n1c(Cc2ccc(O)cc2)n[nH]c1=O	inactive: -4.89%
Cc1csc(NC(=O)c2nc(C(O)c3cccc(O)c3)oc2C)n1 (centres undefined)	inactive: -6.2% [at 57.5 µM]
Cn1c(CO[C@H]2CN(C(=O)c3cccnc3)C[C@H]2F)nc2ccccc21	inactive: 0.8% [at 57.5 µM]
OC1CC([C@H](NC2CSCCSC2)c2ccc3c(c2)CCO3)C1 (some centres undefined)	inactive: -2.88%
c1cncc(-c2ccnc(NCCCN3CCCc4ccccc43)n2)c1	inactive: 0.235%
CS(=O)(=O)N1C[C@@H]2OCC(=O)N(Cc3cccnc3)[C@@H]2C1	inactive: -1.51% [at 57.5 µM]
COC(=O)[C@H]1CN(C(=O)c2cccnc2)CCN1C(=O)C1CCCCC1	inactive: 2.03% [at 57.5 µM]
O=C(O)CCCC(=O)N1C[C@@H](C(=O)O)[C@H](c2ccc3c(c2)OCO3)C1	inactive: 12.1%
COC(=O)CNC(=O)C1CCN(C(=O)C2CN(c3cccc(OC)c3)C(=O)N2)C1 (centres undefined)	inactive: 4.3%
O=C(CCc1c[nH]c2ccccc12)N1CCC(Oc2ncccc2C(=O)N2CCCCC2)C1 (centres undefined)	inactive: -6.03%
O=C(Nc1ccccc1)N[C@H]1[C@H](O)[C@@H](N2CCN(c3ccccc3)CC2)[C@@H]2OC[C@H]1O2	inactive: -7.52% [at 57.5 µM]

SMILES	activity, negative = inhibition
C#CCN(C)Cc1nc(C2(O)CCN(CC3CCCCC3)CC2)cs1	inactive: 2.2% [at 57.5 µM]
CCN(CC)Cc1cnc2c(C(=O)Nc3ccc(OC)c(OC)c3)cnn2c1	inactive: -1.36%
CC1(C(=O)NCc2cccnc2)CCCc2cnc(NCc3ccccc3)nc21 (centres undefined)	inactive: -4.4% [at 57.5 µM]
Fc1ccccc1CNC1(Cc2cc(-c3ccccn3)on2)COC1	inactive: -0.401% [at 57.5 µM]
NC(=O)Cc1c[nH]c2ncc(-c3cccc(O)c3)cc12	inactive: 3.42% [at 76.7 µM]
COc1ccc(CN2C(=O)[C@@H]3C[C@@H](CN3C3CCN(C)CC3)Oc3ccccc32)cc1	inactive: -0.134% [at 57.5 µM]
NC(=O)c1nc(CNC(=O)[C@H]2CCC[C@H](O)C2)no1	inactive: -12.8%
COc1ccccc1CNC[C@H]1O[C@@H]2C[C@@H](CC(=O)NCc3nccn3C)O[C@@H]2[C@@H]1O	inactive: -4.2% [at 57.5 µM]
O=C1Nc2ccc(-c3ccc(Cl)cc3)cc2C(=O)N2CC[C@H](NC(=O)N3CCOCC3)[C@@H]12	inactive: 5.75%
COCCCNC(=O)CCC[C@@H]1[C@H]2CCCN3CCC[C@@H](CN1C(=O)c1ccccc1)[C@@H]23	inactive: -3.2%
COc1ccc(OC)c(S(=O)(=O)N2CCCC(Cn3c(C)nc4cccnc43)C2)c1 (centres undefined)	inactive: 0.0221%
O=C(O)CCCC(=O)N1CCN2C(=O)c3cc(-c4ccco4)ccc3NC(=O)[C@@H]2C1	inactive: -1.67% [at 57.5 µM]
CCCC(C)N1CC2(CCN(C(=O)c3cnn4ccccc34)CC2)OC1=O (centres undefined)	inactive: 1.21%
O=C(NCCc1noc(C(F)(F)F)n1)[C@H]1CCC[C@H](O)C1	inactive: -0.36%
CCCn1ccc2sc(C)c(C(=O)NCc3cc(F)ccc3F)c2c1=O	inactive: 3.42%
Cc1ccc(S(=O)(=O)Cc2noc([C@@H]3C[C@@H](O)CN3C(C)C)n2)cc1	inactive: 6.26% [at 57.5 µM]
CC(c1ccc(-c2ccc(N(C)C)nn2)cc1)N(C)C (centres undefined)	inactive: 1.2%
OCc1cccc(-c2cc3c(cn2)CN(Cc2ccccc2)CCN3)c1	inactive: -4.5% [at 57.5 µM]
CC1(C(=O)NCCOc2ccccc2)CCCc2cnc(Nc3cccnc3)nc21 (centres undefined)	inactive: -0.598% [at 57.5 µM]
O=C1CCCCC(CNC(=O)c2ccccc2)N1 (centres undefined)	inactive: -0.956%
CN(C)CC(NC1CCC2(CCNCC2)CC1)c1ccccc1 (centres undefined)	inactive: 1.73%
COCC(=O)N[C@@H]1CCC[C@@H](C(=O)NCc2cc(F)cc(F)c2)CC(=O)N(C)C1	inactive: 393% [at 57.5 µM]
COc1ccc(CN2CCNc3cnc(Nc4ccccc4)cc3C2)cc1O	inactive: 2.38% [at 57.5 µM]
O=C(Nc1ccccc1CCc1ccccn1)C1CCN(c2cnn(Cc3ccccc3)c(=O)c2)C1 (centres undefined)	inactive: 0.595%
NS(=O)(=O)c1ccc(C(=O)N[C@H](c2cccs2)C2CC(O)C2)cc1 (some centres undefined)	inactive: 0.424%
COc1ccc(-c2cc(N3CCCN(C(=O)c4ccc(C)s4)CC3)n[nH]2)cc1	inactive: 3.9%
